These are yes or no findings as the source states them, for the method shown. Some entries that bind do so weakly or less than the wild type. For some of these results: Where a sequence is shown, tags or fusion partners need not be part of it.
T1: cynomolgus CTLA4/His (cynomolgus) (UniProt G7PL88)
T1 sequence: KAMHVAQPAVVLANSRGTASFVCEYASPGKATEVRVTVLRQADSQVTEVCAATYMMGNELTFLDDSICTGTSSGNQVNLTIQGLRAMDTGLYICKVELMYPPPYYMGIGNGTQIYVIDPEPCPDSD

Protein sequences, listed by entry. Tags and fused reporters are not part of them. Residues count along the entry.
UniProt P16410, residues 36-161: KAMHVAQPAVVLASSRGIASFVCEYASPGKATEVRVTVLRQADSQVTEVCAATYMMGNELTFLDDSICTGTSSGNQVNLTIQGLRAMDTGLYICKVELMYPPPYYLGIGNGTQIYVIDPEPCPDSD

B1: A1 (antibody, V domains shown)
VH: EVQLVQSGGGLVQPGRSLRLSCRGSNFNFDDLAISWVRQAPGKGLEWLGFVRSKAYGETTDYVASVKGRFTISRDDSKFIAWLQMDSLKTDDTAVYYCTTFNYWGQGTLVTVSS
VL: LPVLTQPPSVSVAPGKTARISCGGNNIASEAVHWYQKKPGQAPVLVIYYDSDRPSGIPERFSGSNSGNTATLRISRVDAGDEADYYCQVWDRTTDQPVFGGGTKLTVL
B2: F3 (antibody, V domains shown)
VH: QMQLVQSGAEVKKPGASVTVSCKASGYTFTNSYIHWVRQAPGQGLEWVGRLIPSSGYTIFSQKLQGRVSMTRDTSMSTHYLTLSHLRPEDTAVYYCATDGGNYNLDFWGQGTLVTVSS
VL: QPVLTQPPSVSGSPGQSVTISCTGTSSDVGGYNYVSWYQQHPGKAPKLMIYDVSSRPSGVSNRFSGSKSDNTASLTISGLQAEDEADYYCSSYTSSSPYVFGTGTKVTVL
B3: F5 (antibody, V domains shown)
VH: EVQLVQSGTEVKKPGSSVKVSCKASGGSFSNYAISWVRQAPGQGLEWMGRIIPILGIANYAQKFQGRVTITADKSTSTAYMELSSLGSEDTAVYYCARESGSYLDPWGQGTLVTVSS
VL: DIVMTQSPDSLAVSLGERATINCKSSQSVLYSPNNKNYLTWYQQKPGQPPKLLMYWASTRESGVPDRFSASGSGTDFTLTISSLQAEDVAVYYCQQSRSGPYTFGQGTKVEIK
B4: F6 (antibody, V domains shown)
VH: EVQLVESGGGFVKPGRSLRLSCTASGFTFGDYGMSWFRQAPGKGLEWVGFIRSKAYGGTTDYAASVKGRFTISRDDSKSFAYLQMNSLKTEDTAVYYCTRGHYSASIWGQGTLVTVSS
VL: SYELMQPPSVSVAPGKTARITCGGNNIGSKSVHWYQQRPDQAPVLVIYSDNDRPSGIPERFSGSSSGHTATLTISRVEAGDEADYFCQVWDSNKNEWVFGGGTKLTVL
B5: F7 (antibody, V domains shown)
VH: QVQLVQSGAEVKKPGASVKVSCKASGYAFDGHYMHWVRQAPGQRLEWMGWVDPHSGATNYAQNFQGGVTMTRDTSINTVYMELSSLKSDDTAVYYCARDFYDTSAKSGAFDIWGQGTMVTVSS
VL: AIQLTQSPSSVSASVGDRVTITCRASQGISSWLAWYQQKPGKAPKLLIYAASSLQSGVPSRFSGSGSGTDFTLTISSLQPEDFATYYCQQVNSFPWAFGQGTKVEIK
B6: G1 (antibody, V domains shown)
VH: QVQLVQSGAEVKKPGASVKVSCKTSGNTFTNYYMHWVRQAPGQGLEWMGIMNPSGGSTSYAQKFQGRVTMTRDKSTSTVYMELSSLTSEDTAVYYCARDLFPHIYGNYYGMDIWGQGTTVTVSS
VL: QSVVTQPPSVSAAPGQNVTISCSGSSSNIGNNYVSWYQQLPGTAPKLLIYDNNRRASGIPDRFSGSKSGTSATLGITGLQTGDEADYYCGTWDRSLTTDWVFGGGTKLTVL
B7: G2 (antibody, V domains shown)
VH: QVQLVESGGGLIQPGGSLRLSCAASGFTVSSAYMSWVRQAPGKGLEWVSVIYRGGTTYYADSVKGRFTISRDNSKNTLYLQMNSLRAEDTAVYYCRGEGGNSGDYFDYWGQGTTVTVSS
VL: NFMLTQPASVSGSPGQSITISCTGTSSDVGGYNFVSWYQQHPGKAPKLMIYDVSKRPSGVSNRFSGSKSGNTASLTISGLQAEDEADYYCSSYTSTNTLDVLFGGGTKLTVL
B8: G3 (antibody, V domains shown)
VH: QVQLVQSGAEVKKPGASVKVSCKASGYTFTSYYMHWVRQAPGQGLEWMGIINPSGGSTSYAQKFQGRVTMTRDTSTSTVYMELSGLRSEDTAVYYCARYEHDYDSSKATTGYFDYWGQGTLVTVSS
VL: AIQLTQSPDSLAVSLGERATINCKSSQSILYRSNNKNYLAWYQQKPGQPPKLLIYWASTRESGVPDRFSGSGSGTDFTLTISSLQPEDFATYYCQQADRFPITFGQGTRLEIK
B9: G5 (antibody, V domains shown)
VH: QVQLQQSGPGLVKPSQTLSLTCAISGDSVSSNSAAWNWIRQSPSRGLEWLGRTYYRSKWYNDYAVSVKSRITINPDTSKNQFSLQLNSVTPEDTAVYYCARDRWELPFDYWGQGTTVTVSS
VL: QSVVTQPPSVSAASGQKVIISCSGSNSNIVNNYVSWYQQLPGAAPKVLIYANNKRPSGIPDRFSGSKSGTSAFLAITGLQTGDEADYYCGTWDGSLDVDVFGGGTKLTVL
B10: G12 (antibody, V domains shown)
VH: EVQLVESGAEVKKPGASVKVSCKASGYTFTSYGISWVRQAPGQGLEWMGWISAYNGNTNYAQKLQGRVTMTTDTSTSTAYMELRSLRSDDTAVYYCARGPGILTGYYFDYWGQGTLVTVSS
VL: EIVMTQSPSSLSASVGDRVTITCRASQGINYHLAWYQQKPGKAPKLLIYAASALQSGVPSRFSGTGSGTEFTLTISSLQPEDFATYYCQQFNTYPLTFGGGTKLEIK
B11: A2 (antibody, V domains shown)
VH: QMQLVQSGAEVKMPGSSVRISCKASGGSFTTHFINWVRQAPGQGLEWMGWMNPNTGNTGYAERFQGRVTLTRDTSISTAYLELSSLRSDDTAVYYCARNPAESGRFDPWGQGTLVTVSS
VL: QSALTQPPSASGSPGRSVTISCTGTSNNVGGYNYVSWYQQHPGKAPKLMIYEVTKRPSGVPDRFSGSKSGNTASLTVSGLQAEDEADYYCGTWDGSLNAYVFGTGTKVTVL
B12: E8 (antibody, V domains shown)
VH: QVQLVQSGAEVKKPGASVKVSCEASGYTFTNYYIHWLRQAPGQGLEWMGIINPSGGSTTYAQKFQGRITMTRDTSTNTLYMELSSLRSEDTAIYYCARRDCRGPSCYFAYWGQGTTVTVSS
VL: DIVMTQSPSSLSASVGDRVTITCRASQSISSYLNWYQQKPGKAPKLLIYAASSLQSGVPPRFSGSGSGTEFTLTISSLQPEDFATYYCQQANSFPPTFGQGTKVDIK
B13: CT1E1 (antibody, V domains shown)
VH: EVQLVESGGGLVQPGRSLRLSCRGSNFNFDDLAISWVRQAPGKGLEWLGFVRSKAYGETTDYVASVKGRFTISRDDSKFIAWLQMDSLKTDDTAVYYCTTFNYWGQGTLVTVSS
VL: QPVLTQPPSVSVAPGKTARISCGGNNIASEAVHWYQKKPGQAPVLVIYYDSDRPSGIPERFSGSNSGNTATLRISRVDAGDEADYYCQVWDRTTDQPVFGGGTKLTVL
B14: A4 (antibody, V domains shown)
VH: QVQLVESGGGLIQPGGSLRLSCAASGFSVSNNYMNWVRQAPGKGLEWVSVIYRGGSTYYADSVKGRFTISRDNSKNTLYLQMNSLRTEDTAVYYCLREGGTSGDYVNDWGQGTLVTVSS
VL: QSVVTQPPSVSGAPGQRVTISCTGSSSNIGAGYDVHWYQQLPGTAPKLLIYGNKNRPSGVPDRFSGSKSGTSASLAITGLQAEDEADYYCQAYDSSLSVVFGGGTKLTVL
B15: A12 (antibody, V domains shown)
VH: QVQLVESGGGLVQPGGSLRLSCAASGFTFSNYAMNWVRQTPGKGLEWVSVNYNDGFGTFNGYYADSVKGRFIISRDNSKNTLYLQMNSLRVDDTAVYYCARDSGVAGPYYFDNWGQGTLVTVSS
VL: AIQLTQSPSTLSASVGDRVTITCRASQSISSWLAWYQQKPGKAPKLLIYKASSLESGVPSRFSGSGSGTEFTLTISSLQPDDFATYYCQQYNSSPLTFGGGTKLEIK
B16: B6 (antibody, V domains shown)
VH: QVQLVQSGAEVKKPGATVKVSCTASGFPFRNYAMHWVRQAPGQRLEWLGWIDAGNGNTKYSQTFHGRVTITRDTSASTAYMELSSLRSEDTAVYYCARDLLWPYLVTSGGAFDIWGQGTMVTVSS
VL: SYELMQPPSTSGTPGQRVTISCSGSSSNIGSHIVNWYQQFPGAAPQLLIYNDDQRPSGVPDRFSGSKSGASASLAISGLQSEDEAHYYCSAWDDILKGPVFGGGTKLTVL
B17: C2 (antibody, V domains shown)
VH: QVQLVQSGAEVKKPGASVKVSCKASGYTFTTHYIHWVRQAPGQGLEWMAIINPNDGVKVYAQKFKGRLTVASDTSATTVYMDLSGLTSDDTAVYYCGREQHGGHHDYWGQGTLVTVSS
VL: QAGLTQPASVSGSPGQSITISCTGTSSDVGGYNYVSWYQQHPGKAPKLMIYDVTNRPSGVSNRFSGSKSGNTASLTISGLQAEDEADYYCKSYTSSSTPYVFGTGTKVTVL
B18: F1 (antibody, V domains shown)
VH: EVQLVQSGAEVKKPGASVKVSCKASGYTFTSYGISWVRQAPGQGLEWMGWISAYNGNTNYAQKLQGRVTMTTDTSTSTAYMELRSLRSDDTAVYYCARVGYGGYFDYWGQGTLVTVSS
VL: SYELMQPPSVSKGLRQTATLTCTGNSNNVGNQGADWLQQHQGHPPKLLSYRNNDRPSGISERFSASRSGSTASLTITGLQPEDEADYYCLAWDSSLSAWVFGGGTKVTVL

What follows are binders tested against human CTLA4 (human) (UniProt P16410) (assay: antibody selection, method not described).

binding, binds:
B1, B2, B3, B4, B5, B6, B7, B8, B9, B10, B11, B12, B13, B14, B15, B16, B17, B18

The binders below were run against T1, cynomolgus CTLA4/His (cynomolgus) (assay: ELISA, CTLA4/His captured on Ni-NTA plate, antibody at ~1 ug/mL, anti-human Fc-HRP detection).

binding, binds:
B13
